{"source": "PubChem BioAssay AID1259290 (Sanger Institute, 2017)", "assay": "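siRNA screen across the kinome seeking synthetic lethal partners for BYL719, cetuximab or trametinib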 (primary screen)", "system": "human SNUC1 colorectal cancer cells", "reagents": "siRNA pool against human genes", "treatment": "anchor drugs BYL719 1 µM, cetuximab 5 µg/ml or trametinib 10 nM, or DMSO vehicle alone", "detection": "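Cell viability relative to a non-targeting siRNA control, replicate-averaged, as robust z-score for knock-down alone, plus a synergy score for each anchor drug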", "scale": "viability z-score, siRNA alone: higher = more viable cells; low values mean essential gene", "call rule": "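Essential when the robust viability z-score with siRNA alone falls below -3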", "meaning of the calls": "active = essential: knock-down alone cut viability (z below -3); inactive = no clear viability loss with knock-down alone", "note": "This is a random part of 794 deposited reagents. 9 of them (1.1%) were called active. 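Calls rest on knock-down alone, not drug synergy; synergy above 0.15 was grouped apart and does not affect calls.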 Not all columns of the deposit are shown. Not stated in the record: the amount of reagent, the time to read-out."}
{"gene knocked down": "ASPM", "viability z-score, siRNA alone": -0.384, "Outcome": "inactive"}
{"gene knocked down": "MAPK9", "viability z-score, siRNA alone": -0.304, "Outcome": "inactive"}
{"gene knocked down": "NAGK", "viability z-score, siRNA alone": 0.936, "Outcome": "inactive"}
{"gene knocked down": "CDK2", "viability z-score, siRNA alone": 0.936, "Outcome": "inactive"}
{"gene knocked down": "PGK1", "viability z-score, siRNA alone": 0.853, "Outcome": "inactive"}
{"gene knocked down": "MOK", "viability z-score, siRNA alone": -1.47, "Outcome": "inactive"}
{"gene knocked down": "IRAK4", "viability z-score, siRNA alone": 0.936, "Outcome": "inactive"}
{"gene knocked down": "MET", "viability z-score, siRNA alone": 0.583, "Outcome": "inactive"}
{"gene knocked down": "MAGI1", "viability z-score, siRNA alone": 0.441, "Outcome": "inactive"}

Part of the list above, set out differently:
| gene knocked down | viability z-score, siRNA alone | Outcome |
| --- | --- | --- |
| IRAK4 | 0.936 | inactive |
| MET | 0.583 | inactive |

Further entries:
{"gene knocked down": "RPS6KC1", "viability z-score, siRNA alone": -0.6, "Outcome": "inactive"}
{"gene knocked down": "JAK3", "viability z-score, siRNA alone": 0.936, "Outcome": "inactive"}
{"gene knocked down": "MAP3K15", "viability z-score, siRNA alone": 0, "Outcome": "inactive"}
{"gene knocked down": "PEAK1", "viability z-score, siRNA alone": 0.471, "Outcome": "inactive"}
{"gene knocked down": "STK4", "viability z-score, siRNA alone": 0.261, "Outcome": "inactive"}
{"gene knocked down": "DBF4", "viability z-score, siRNA alone": 0.634, "Outcome": "inactive"}
{"gene knocked down": "TTBK2", "viability z-score, siRNA alone": 0.936, "Outcome": "inactive"}
{"gene knocked down": "MAP3K7", "viability z-score, siRNA alone": 0.405, "Outcome": "inactive"}
{"gene knocked down": "PPP2R1A", "viability z-score, siRNA alone": -0.226, "Outcome": "inactive"}
{"gene knocked down": "GALK2", "viability z-score, siRNA alone": 0.0304, "Outcome": "inactive"}
{"gene knocked down": "EFNA3", "viability z-score, siRNA alone": 0.936, "Outcome": "inactive"}
{"gene knocked down": "DYRK1B", "viability z-score, siRNA alone": -0.554, "Outcome": "inactive"}
{"gene knocked down": "PINK1", "viability z-score, siRNA alone": 0.533, "Outcome": "inactive"}
{"gene knocked down": "STAG2", "viability z-score, siRNA alone": -0.011, "Outcome": "inactive"}
{"gene knocked down": "ELP1", "viability z-score, siRNA alone": 0.779, "Outcome": "inactive"}
{"gene knocked down": "RYK", "viability z-score, siRNA alone": 0.936, "Outcome": "inactive"}
{"gene knocked down": "CAMK2D", "viability z-score, siRNA alone": -0.473, "Outcome": "inactive"}
{"gene knocked down": "STK32B", "viability z-score, siRNA alone": 0.886, "Outcome": "inactive"}
{"gene knocked down": "IP6K3", "viability z-score, siRNA alone": 0.824, "Outcome": "inactive"}
